# Laboratory results: PubChem BioAssay AID1439 (NMMLSC, 2008)
# By UniProt entry, the sequences of proteins in these tests, tags left out.
# UniProt P09471, whole entry, looked up: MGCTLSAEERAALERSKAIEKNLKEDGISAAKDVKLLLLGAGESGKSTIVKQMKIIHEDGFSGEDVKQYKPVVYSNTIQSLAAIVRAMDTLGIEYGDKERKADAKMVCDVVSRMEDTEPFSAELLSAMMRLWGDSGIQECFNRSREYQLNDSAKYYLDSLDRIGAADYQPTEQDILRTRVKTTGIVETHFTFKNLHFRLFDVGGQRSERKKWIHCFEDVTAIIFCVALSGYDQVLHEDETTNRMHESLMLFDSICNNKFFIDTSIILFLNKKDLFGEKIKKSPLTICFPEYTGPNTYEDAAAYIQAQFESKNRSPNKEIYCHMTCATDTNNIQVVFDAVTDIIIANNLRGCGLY
# Out of some 220,000 compounds screened, about 770 (0.35%) were called active. This list was built around the results that the source calls inconclusive (neither active nor inactive); the mix of calls is not that of the screen. No stated cut-off is given here; in the data, active means binding response below about 49% or above about 150%; inconclusive means no clear call, values can overlap the other calls; inactive means in between.
# Target: Guanine nucleotide-binding protein G(o) subunit alpha (Homo sapiens) (UniProt P09471)
# Assay: RGS7-Galphao binding modulators, primary screen, biochemical, multiplexed bead flow cytometry (AID 1439);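 further: fluorescent Galphao held in activated GDP-AlF4 state binding bead-coupled RGS7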
# Conditions: at 10 µM, actives lie on both sides
row,Structure (SMILES),binding response (% of control)
1,CCOC1=C/C(=C/c2c(N)n3nc(S(=O)(=O)CC)sc3nc2=O)C=CC1=O,inconclusive: 92.2%
2,Cc1ccnc(NS(=O)(=O)c2ccc(NC(=O)C(C)(C)C)cc2)n1,inconclusive: 99.6%
3,Fc1ccc(CSc2nnc3ccc(-c4ccncc4)nn23)cc1,inconclusive: 92.7%
4,O=C(O)COc1ccc(/C=N/NC(=O)Cc2ccc(Cl)cc2)cc1,inconclusive: 26.5%
5,NNC(=S)NC1CC2CC1C1C=CCC21 (configuration not stated),inconclusive: 51.8%
6,COc1cc(/C=C/C(=O)OCc2cn3cc(Cl)ccc3n2)ccc1O,inconclusive: 81%
7,O=C(O)c1ccc(-n2cccc2/C=C2/NC(=O)N(c3ccccc3)C2=O)cc1,inconclusive: 63.8%
8,COc1ccc(NC(=O)c2nc[nH]c2C(=O)N2CCN(c3ccccc3)CC2)cc1,inconclusive: 107%
9,O=C(Nc1cccc(Cl)c1N1CCOCC1)c1ccc2c(c1)OCCO2,inactive: 108%
10,CC(=O)Nc1cccc(NC(=O)CSc2ccc(-c3cccnc3)nn2)c1,inconclusive: 95.8%
11,CN(CC(=O)O)S(=O)(=O)c1ccc2c(c1)NC(=O)CC(=O)N2,inconclusive: 92.7%
12,CCN(CCNCC(O)COCc1ccc(Cl)cc1)c1cccc(C)c1 (configuration not stated),inconclusive: 80.9%
13,CC(NC(=S)NCCN1CCOCC1)C12CC3CC(CC(C3)C1)C2 (configuration not stated),inconclusive: 114%
14,COc1ccc(NC(=O)Nc2ccccc2C(N)=O)cc1,inconclusive: 126%
15,Cc1nc2sc(C(c3ccccc3)N3CCN(C)CC3)c(O)n2n1 (configuration not stated),inconclusive: 97.9%
16,CC(C)(C)C1CCc2sc(C(=O)NNC(=O)CCl)cc2C1 (configuration not stated),inactive: 108%
17,COc1ccc(OC)c(C2=Nn3c(nnc3-c3cc(C)[nH]n3)SC2)c1,inconclusive: 88.9%
18,COc1c(/C=N/NS(=O)(=O)c2ccc(C)cc2)c(CCN(C)C(C)=O)cc2c1OCO2,inconclusive: 71%
19,O=C(NNC(=O)c1cccs1)c1ccccc1,inconclusive: 96.5%
20,CC(C)C1N(C(=O)CN2CCCCC2)CCN1S(=O)(=O)c1ccccc1 (configuration not stated),inactive: 86.5%
21,CCc1ccc(-n2cc(-c3ccc(F)cc3)[n+]3c2SCCC3)cc1,inconclusive: 86.6%
22,CC(=O)Nc1ccc(S(=O)(=O)NC(C(=O)O)C(C)O)cc1 (configuration not stated),inconclusive: 100%
23,CSc1ccccc1NC(=O)CN(C)CC(=O)Nc1c(F)cccc1F,inactive: 121%
24,COc1ccc(C(=O)O)cc1S(=O)(=O)NCCc1ccccn1,inconclusive: 97.7%

# Filtered by structure, those above containing fluorine
row,Structure (SMILES),binding response (% of control)
3,Fc1ccc(CSc2nnc3ccc(-c4ccncc4)nn23)cc1,inconclusive: 92.7%
21,CCc1ccc(-n2cc(-c3ccc(F)cc3)[n+]3c2SCCC3)cc1,inconclusive: 86.6%
23,CSc1ccccc1NC(=O)CN(C)CC(=O)Nc1c(F)cccc1F,inactive: 121%

# (more compounds)

row,Structure (SMILES),binding response (% of control)
1,CCOC(=O)c1ccc(NC(=S)N(CCCN2CCN(CC)CC2)Cc2cccs2)cc1,inconclusive: 63.2%
2,CSc1ccccc1C(=O)Nc1ccccc1C,inconclusive: 101%
3,O=C1NCCCC1C(=O)N/N=C/c1ccccc1[N+](=O)[O-] (configuration not stated),inconclusive: 325%
4,CCOC(=O)c1cc(-c2cccs2)[nH]n1,inconclusive: 430%
5,Cc1nc(N)sc1C(=O)NN,inconclusive: -460%
6,CC(=O)Nc1ccc(S(=O)(=O)N2CCN(Cc3cccc([N+](=O)[O-])c3)CC2)cc1,inconclusive: 94.1%
7,CC1CCC2(CC1)NC(=S)N(C(C)(C)C)N2 (configuration not stated),inconclusive: 470%
8,Cc1cc(NC(=O)CSc2ncccc2C(=O)O)no1,inactive: 97%
9,COC(=O)C1=C(C(=O)OC)[C@@H]2N(C)c3ccccc3[C@@]23C[C@@H](C(=O)OC)N(C(=O)c2ccc(Br)cc2)C3=N1,inconclusive: 83.3%
10,CSc1snc(SCC(N)=O)c1C#N,inactive: 98%
11,Cc1ccccc1C(=O)Nc1ccc(S(=O)(=O)Nc2onc(C)c2C)cc1,inconclusive: 101%
12,CC1=C(C)C(OCCBr)N(c2cc(O)c(Cl)cc2F)C1=O (configuration not stated),inconclusive: 115%
13,N=C1C(c2nc3ccccc3s2)=C(O)CN1CCCO,inactive: 100%
14,COCc1cc(=O)[nH]c(SCC(=O)c2ccccc2)n1,inconclusive: 126%
15,CCSC1=NCCN1C(=O)c1c(-c2ccccc2Cl)noc1C,inconclusive: 108%
16,C/C(=N\NC(=S)NCc1ccccc1)c1cccs1,inconclusive: 101%
17,CN1CCN(C(CNS(=O)(=O)c2ccc(Cl)cc2)c2cccnc2)CC1 (configuration not stated),active: 157% [activator]
18,O=S(=O)(NC1c2cccc3cccc(c23)C1N1CCNCC1)c1ccc(Cl)cc1 (configuration not stated),inactive: 104%
19,C/C(=N\N=C(/N)c1nonc1N)c1ccc2c(c1)OCO2,inconclusive: 106%
20,CCOC(=O)c1c(C)[nH]c(C(=O)COC(=O)/C=C/c2ccc(OCC#N)c(OC)c2)c1C,inactive: 93%
21,COC(=O)c1cc(OC)c(OC)cc1NC(=O)c1cc(C(C)(C)C)oc1C,inconclusive: 83.3%
22,CN(CC(=O)Nc1ccc(Cl)cc1)CC(=O)Nc1ccc(C(N)=O)cc1,inconclusive: 83.1%
23,CCC12CN3CCN(CC(C3)/C1=N\NC(=O)c1ccc(Cl)cc1)C2,inactive: 90.5%
